Assay [1] deals with T1, 3HA-FBW2 (3x HA epitope at the N-terminus of the F-box protein FBW2) (Arabidopsis thaliana) (UniProt Q9ZPE4).
T1 sequence: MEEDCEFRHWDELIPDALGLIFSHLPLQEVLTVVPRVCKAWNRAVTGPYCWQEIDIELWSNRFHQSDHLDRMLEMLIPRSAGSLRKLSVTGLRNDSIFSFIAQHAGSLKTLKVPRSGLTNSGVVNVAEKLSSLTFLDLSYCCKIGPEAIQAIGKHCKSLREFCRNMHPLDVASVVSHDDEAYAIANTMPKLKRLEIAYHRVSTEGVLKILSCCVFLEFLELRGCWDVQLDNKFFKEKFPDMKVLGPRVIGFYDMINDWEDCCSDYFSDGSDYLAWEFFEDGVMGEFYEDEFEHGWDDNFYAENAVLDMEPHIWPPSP
Kind of assay: co-IP.

The chains behind the UniProt entries cited, without tags or fusion partners.
UniProt Q39255: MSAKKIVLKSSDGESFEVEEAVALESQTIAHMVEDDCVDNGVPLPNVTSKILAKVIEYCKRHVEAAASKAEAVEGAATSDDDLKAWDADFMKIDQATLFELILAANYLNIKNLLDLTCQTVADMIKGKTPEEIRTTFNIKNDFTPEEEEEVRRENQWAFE
UniProt Q94AH6: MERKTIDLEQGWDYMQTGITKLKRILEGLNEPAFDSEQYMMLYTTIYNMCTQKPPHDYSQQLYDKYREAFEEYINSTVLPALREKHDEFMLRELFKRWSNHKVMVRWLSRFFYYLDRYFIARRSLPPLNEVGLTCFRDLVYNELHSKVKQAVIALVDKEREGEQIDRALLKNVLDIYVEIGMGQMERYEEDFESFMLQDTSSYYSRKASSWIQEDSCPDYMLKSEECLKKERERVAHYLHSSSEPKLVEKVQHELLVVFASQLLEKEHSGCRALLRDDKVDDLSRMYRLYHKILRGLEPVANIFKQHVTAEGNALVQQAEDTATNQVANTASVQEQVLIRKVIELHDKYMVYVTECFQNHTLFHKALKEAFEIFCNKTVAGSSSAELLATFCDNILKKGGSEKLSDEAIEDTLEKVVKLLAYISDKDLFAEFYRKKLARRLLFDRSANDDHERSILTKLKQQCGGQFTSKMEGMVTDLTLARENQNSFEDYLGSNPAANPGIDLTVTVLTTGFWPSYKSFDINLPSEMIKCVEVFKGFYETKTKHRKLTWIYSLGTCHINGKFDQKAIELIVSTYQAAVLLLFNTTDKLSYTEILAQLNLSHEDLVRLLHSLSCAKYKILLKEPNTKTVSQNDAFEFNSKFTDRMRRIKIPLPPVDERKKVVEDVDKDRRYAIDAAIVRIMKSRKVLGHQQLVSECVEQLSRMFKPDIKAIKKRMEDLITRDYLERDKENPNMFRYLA

Assay [2] has as its target T2, full-length AGO1 fused to the N- or C-terminal fragment of YFP (BiFC) (Arabidopsis thaliana) (UniProt O04379).
T2 sequence: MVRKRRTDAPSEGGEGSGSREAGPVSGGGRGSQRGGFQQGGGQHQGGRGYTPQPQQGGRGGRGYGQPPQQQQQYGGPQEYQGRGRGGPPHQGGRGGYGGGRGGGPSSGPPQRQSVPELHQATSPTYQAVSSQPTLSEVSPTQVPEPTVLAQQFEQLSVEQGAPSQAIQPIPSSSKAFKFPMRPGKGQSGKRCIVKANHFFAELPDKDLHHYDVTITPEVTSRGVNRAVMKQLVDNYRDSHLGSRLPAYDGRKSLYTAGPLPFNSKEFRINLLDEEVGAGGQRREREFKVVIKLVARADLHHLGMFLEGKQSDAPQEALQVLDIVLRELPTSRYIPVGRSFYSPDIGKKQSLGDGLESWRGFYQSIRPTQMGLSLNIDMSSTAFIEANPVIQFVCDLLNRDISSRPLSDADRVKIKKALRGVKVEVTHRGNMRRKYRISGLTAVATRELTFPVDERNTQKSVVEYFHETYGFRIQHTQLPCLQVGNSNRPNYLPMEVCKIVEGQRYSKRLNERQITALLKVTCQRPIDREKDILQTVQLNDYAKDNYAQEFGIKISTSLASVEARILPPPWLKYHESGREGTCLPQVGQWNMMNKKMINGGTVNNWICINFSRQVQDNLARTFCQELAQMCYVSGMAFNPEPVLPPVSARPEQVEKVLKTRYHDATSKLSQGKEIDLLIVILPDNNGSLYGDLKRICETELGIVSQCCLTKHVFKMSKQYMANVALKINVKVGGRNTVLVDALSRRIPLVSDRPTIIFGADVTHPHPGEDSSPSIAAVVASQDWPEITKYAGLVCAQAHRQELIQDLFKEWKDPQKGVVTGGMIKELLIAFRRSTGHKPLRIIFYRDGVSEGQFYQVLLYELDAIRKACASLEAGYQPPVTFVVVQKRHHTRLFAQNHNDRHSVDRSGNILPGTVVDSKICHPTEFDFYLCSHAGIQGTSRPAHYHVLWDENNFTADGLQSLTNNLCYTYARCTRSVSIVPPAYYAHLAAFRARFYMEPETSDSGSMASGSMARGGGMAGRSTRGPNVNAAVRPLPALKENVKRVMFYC
Kind of assay: split reporter.

Assay [3] has as its target ASK1 (yeast two-hybrid fusion) (Arabidopsis thaliana) (UniProt Q39255). The assay can be described thus: two-hybrid.

Results are given in words; binding and its absence hold for the method and conditions named. For some assays here: Binding seen in cells or lysates may run through a third protein. Some results given as binding are weak or reduced against the parent protein; the word gives no strength. For some assays here: Tags and fused reporters may be left off the sequences shown.

For “CULLIN1 (CUL1), endogenous (from UniProt Q94AH6 1-738)”, the binding entry in assay [1] is reported as “binds”.

“ASK1 (Skp1-like protein 1), endogenous (from UniProt Q39255 1-160)”: the binding result in assay [1] is “binds”.

B1: SDE3 fused to the N- or C-terminal fragment of YFP (BiFC) (protein, UniProt Q8GYD9 1-1002)
chain: MSVSGYKSDDEYSVIADKGEIGFIDYQNDGSSGCYNPFDEGPVVVSVPFPFKKEKPQSVTVGETSFDSFTVKNTMDEPVDLWTKIYASNPEDSFTLSILKPPSKDSDLKERQCFYETFTLEDRMLEPGDTLTIWVSCKPKDIGLHTTVVTVDWGSDRVERVVFLLAEDKISSSLTSNRPYSRSRRAPKKDFAVDDYVKGSRPSKVVERSFRNRLPLYEIPKEIREMIENKEFPDDLNEGLTARNYANYYKTLLIMEELQLEEDMRAYDMENVSMKRRGIYLSLEVPGLAERRPSLVHGDFIFVRHAYDDGTDHAYQGFVHRVEADEVHMKFASEFHQRHTAGSVYNVRFTYNRINTRRLYQAVDAAEMLDPNFLFPSLHSGKRMIKTKPFVPISPALNAEQICSIEMVLGCKGAPPYVIHGPPGTGKTMTLVEAIVQLYTTQRNARVLVCAPSNSAADHILEKLLCLEGVRIKDNEIFRLNAATRSYEEIKPEIIRFCFFDELIFKCPPLKALTRYKLVVSTYMSASLLNAEGVNRGHFTHILLDEAGQASEPENMIAVSNLCLTETVVVLAGDPRQLGPVIYSRDAESLGLGKSYLERLFECDYYCEGDENYVTKLVKNYRCHPEILDLPSKLFYDGELVASKEDTDSVLASLNFLPNKEFPMVFYGIQGCDEREGNNPSWFNRIEISKVIETIKRLTANDCVQEEDIGVITPYRQQVMKIKEVLDRLDMTEVKVGSVEQFQGQEKQVIIISTVRSTIKHNEFDRAYCLGFLSNPRRFNVAITRAISLLVIIGNPHIICKDMNWNKLLWRCVDNNAYQGCGLPEQEEFVEEPFKQEGSSNGPQYPPEAEWNNSGELNNGGANENGEWSDGWNNNGGTKEKNEWSDGWNSNGGGTKKKDEWSDGWDNNGGTNGINQEGSSNAPQDPQEAEWNDSGEVKNGGTKEKDVRSDGWNNNGGKNEKEECCDGWKDGGSGEEIKNGGKFETRGDFVAKEEDEWSDGWK
On to B1, for which, in assay [2], the binding result is reported as “binds”.

B2: FBW2 (pGADT7-FBW2, yeast two-hybrid) (protein, UniProt Q9ZPE4 1-317)
chain: T1 sequence
Regarding B2, in assay [3], the binding entry is “binds”.

B3: BPM5 fused to the N- or C-terminal fragment of YFP (BiFC) (protein, UniProt Q1EBV6 1-410)
chain: MSESVIQGSNPDRVLSPTSSKSVTQTVNGSHQFVIQGYSLAKGMGIGKHIASDNFSVGGYQWGIFFYPDGKNPEDNSSYVSVFIALASEGTEVRALFELALVDQSGKGKHKVHSHFERSLDGGPYTLKYRGSMWGYKRFFRRSILETSDYLKDDCLIINCTVGVVVSEILCPQLHSVHVPDSELGSHFGVLLDSMEGSDITFNIAGEKFLAHKLVLAARSPFFKSKFFSEFEANNTEVTINDLEPKVFKALLQFMYKDSLPEDVEPATAHTFERLKLSEIYETLIVKVLAAADKYDLIRLRLLCESHICKGVSVKSVAKILALADRYNAKELKGVCLKFTAENLAAVLETDAYQQMKDECVTLQSELLKAVAGHEEGSNSTGGAKSQSVWAQLSDGGGDTTSRHVRQRTT
Turning to B3, in assay [2], the binding result is given as “no binding”.

(Values after article doi:10.1101/2021.03.24.436811.)
